According to ChEMBL document CHEMBL4316593 (Eur J Med Chem, 2019):
This continues a long series; more values of the same kind are listed elsewhere.

What was measured:
Type in all cases: cell-based
Settings in all cases: U-87MG ATCC
[1] = Inhibition of RTK/PI3K/AKT/mTOR signaling in human U87 cells assessed as down regulation of SP6 gene expression at cytotoxic IC50 measured after 48 hrs relative to control
[2] = Inhibition of RTK/PI3K/AKT/mTOR signaling in human U87 cells assessed as down regulation of IMPA1 gene expression at cytotoxic IC50 measured after 48 hrs relative to control
[3] = Inhibition of RTK/PI3K/AKT/mTOR signaling in human U87 cells assessed as up regulation of SND1 gene expression at cytotoxic IC50 measured after 48 hrs relative to control
[4] = Inhibition of RTK/PI3K/AKT/mTOR signaling in human U87 cells assessed as up regulation of KLHDC7B gene expression at cytotoxic IC50 measured after 48 hrs relative to control
[5] = Inhibition of RTK/PI3K/AKT/mTOR signaling in human U87 cells assessed as down regulation of UHMK1 gene expression at cytotoxic IC50 measured after 48 hrs relative to control
[6] = Inhibition of RTK/PI3K/AKT/mTOR signaling in human U87 cells assessed as down regulation of LHFP gene expression at cytotoxic IC50 measured after 48 hrs relative to control
[7] = Inhibition of RTK/PI3K/AKT/mTOR signaling in human U87 cells assessed as up regulation of jade family PHD finger 2 gene expression at cytotoxic IC50 measured after 48 hrs relative to control
[8] = Inhibition of RTK/PI3K/AKT/mTOR signaling in human U87 cells assessed as up regulation of CXXC finger protein 5 gene expression at cytotoxic IC50 measured after 48 hrs relative to control
[9] = Inhibition of RTK/PI3K/AKT/mTOR signaling in human U87 cells assessed as up regulation of NAP1L1 gene expression at cytotoxic IC50 measured after 48 hrs relative to control
[10] = Inhibition of RTK/PI3K/AKT/mTOR signaling in human U87 cells assessed as up regulation of GRAM domain containing 1B gene expression at cytotoxic IC50 measured after 48 hrs relative to control
[11] = Inhibition of RTK/PI3K/AKT/mTOR signaling in human U87 cells assessed as up regulation of RAB11 family interacting protein 2 gene expression at cytotoxic IC50 measured after 48 hrs relative to control
[12] = Inhibition of RTK/PI3K/AKT/mTOR signaling in human U87 cells assessed as down regulation of LEPR gene expression at cytotoxic IC50 measured after 48 hrs relative to control
[13] = Inhibition of RTK/PI3K/AKT/mTOR signaling in human U87 cells assessed as down regulation of PCLO gene expression at cytotoxic IC50 measured after 48 hrs relative to control
[14] = Inhibition of RTK/PI3K/AKT/mTOR signaling in human U87 cells assessed as up regulation of fibroblast growth factor receptor 2 gene expression at cytotoxic IC50 measured after 48 hrs relative to control
[15] = Inhibition of RTK/PI3K/AKT/mTOR signaling in human U87 cells assessed as down regulation of RIOK3 gene expression at cytotoxic IC50 measured after 48 hrs relative to control
[16] = Inhibition of RTK/PI3K/AKT/mTOR signaling in human U87 cells assessed as up regulation of SH2D3A gene expression at cytotoxic IC50 measured after 48 hrs relative to control
[17] = Inhibition of RTK/PI3K/AKT/mTOR signaling in human U87 cells assessed as up regulation of leucine rich adaptor protein 1 like gene expression at cytotoxic IC50 measured after 48 hrs relative to control
[18] = Inhibition of RTK/PI3K/AKT/mTOR signaling in human U87 cells assessed as up regulation of NCK interacting protein with SH3 domain gene expression at cytotoxic IC50 measured after 48 hrs relative to control
[19] = Inhibition of RTK/PI3K/AKT/mTOR signaling in human U87 cells assessed as up regulation of FKBP9 gene expression at cytotoxic IC50 measured after 48 hrs relative to control
[20] = Inhibition of RTK/PI3K/AKT/mTOR signaling in human U87 cells assessed as up regulation of 1,4-alpha-glucan branching enzyme 1 gene expression at cytotoxic IC50 measured after 48 hrs relative to control
[21] = Inhibition of RTK/PI3K/AKT/mTOR signaling in human U87 cells assessed as up regulation of methyltransferase like 8 gene expression at cytotoxic IC50 measured after 48 hrs relative to control
[22] = Inhibition of RTK/PI3K/AKT/mTOR signaling in human U87 cells assessed as down regulation of NPNT gene expression at cytotoxic IC50 measured after 48 hrs relative to control
[23] = Inhibition of RTK/PI3K/AKT/mTOR signaling in human U87 cells assessed as down regulation of UBE2B gene expression at cytotoxic IC50 measured after 48 hrs relative to control
[24] = Inhibition of RTK/PI3K/AKT/mTOR signaling in human U87 cells assessed as down regulation of TNFAIP1 gene expression at cytotoxic IC50 measured after 48 hrs relative to control
[25] = Inhibition of RTK/PI3K/AKT/mTOR signaling in human U87 cells assessed as down regulation of UFD1 gene expression at cytotoxic IC50 measured after 48 hrs relative to control
[26] = Inhibition of RTK/PI3K/AKT/mTOR signaling in human U87 cells assessed as down regulation of PBX3 gene expression at cytotoxic IC50 measured after 48 hrs relative to control
[27] = Inhibition of RTK/PI3K/AKT/mTOR signaling in human U87 cells assessed as up regulation of WD repeat domain 43 gene expression at cytotoxic IC50 measured after 48 hrs relative to control
[28] = Inhibition of RTK/PI3K/AKT/mTOR signaling in human U87 cells assessed as down regulation of MCMBP gene expression at cytotoxic IC50 measured after 48 hrs relative to control
[29] = Inhibition of RTK/PI3K/AKT/mTOR signaling in human U87 cells assessed as down regulation of UBE2D1 gene expression at cytotoxic IC50 measured after 48 hrs relative to control
[30] = Inhibition of RTK/PI3K/AKT/mTOR signaling in human U87 cells assessed as down regulation of CDCA2 gene expression at cytotoxic IC50 measured after 48 hrs relative to control
[31] = Inhibition of RTK/PI3K/AKT/mTOR signaling in human U87 cells assessed as up regulation of signal induced proliferation associated 1 like 3 gene expression at cytotoxic IC50 measured after 48 hrs relative to control
[32] = Inhibition of RTK/PI3K/AKT/mTOR signaling in human U87 cells assessed as down regulation of C6orf222 gene expression at cytotoxic IC50 measured after 48 hrs relative to control

CC(=O)C(=NNc1ccccc1C#N)C(C)=O
log2FC [1]: -0.731
log2FC [2]: -1.06
log2FC [3]: 0.36
log2FC [4]: 4.14
log2FC [5]: -0.481
log2FC [6]: -3.33
log2FC [7]: 1.12
log2FC [8]: 1.23
log2FC [9]: 0.444
log2FC [10]: 0.817
log2FC [11]: 0.76
log2FC [12]: -1.07
log2FC [13]: -2.34
log2FC [14]: 0.926
log2FC [15]: -0.602
log2FC [16]: 0.548
log2FC [17]: 1.33
log2FC [18]: 0.976
log2FC [19]: 0.559
log2FC [20]: 1.16
log2FC [21]: 0.772
log2FC [22]: -0.932
log2FC [23]: -0.764
log2FC [24]: -1.07
log2FC [25]: -0.916
log2FC [26]: -1.09
log2FC [27]: 1.01
log2FC [28]: -0.377
log2FC [29]: -1.35
log2FC [30]: -1.19
log2FC [31]: 0.804
log2FC [32]: -7.57
